PMC12469161, “Anti-cancer compound screening identifies Aurora Kinase A inhibition as a means to favor CRISPR/Cas9 gene correction over knock-out” (PLOS One, 2025)

Columns and labels:
[1] = tested on: eGFP locus in HEK293T-eGFP cells (HDR vs NHEJ); assay: CRISPR gene-editing outcome (eGFP to BFP conversion, flow cytometry) with CRISPR-Cas9 LNP; format: cell-based; details: up to three dosages based on IC50, single measurements
Experimental: Compounds were assessed in three dosages to assess the effects on gene-editing efficacy. […] Cells were incubated with these compounds for 24 hours prior to LNP addition. LNP were added to all wells at a final concentration of 20 nM SpCas9 to achieve robust genome editing. After 24 hours of co-incubation, medium was refreshed and cells were transferred to a 48 well plate for further culturing. Six days after adding compounds, cells were processed for flow cytometric analysis of the gene knock-out and gene-correction efficiencies. Briefly, a ssDNA template was used carrying two nucleotide mutations to convert the eGFP sequence to that of a blue fluorescent protein (BFP), as well as mutating the PAM sequence to ensure robust HDR. The sgRNA spacer sequence was 5’-[…]-3’, and the HDR template sequence was 5’-[…]-3’.
Flow cytometry using the BD FACS Canto II (Becton Dickinson) was used to determine cells undergoing NHEJ (eGFP and BFP negative population) and HDR (eGFP negative, BFP positive). […]
The percentage of HDR relative to total gene editing in a given cell population (hereafter named Relative HDR (% of edited cells) was calculated by dividing the absolute HDR population by the sum of gene-edited cells found in the BFP+ and eGFP- gates. Absolute HDR (% of all cells) and Absolute NHEJ (% of all cells) were analyzed where appropriate. The gating strategy is given in S1 Fig in S1 File.

[2] = tested on: HEK293T-eGFP cells; assay: MTT cytotoxicity assay, 72 hours; format: cell-based; details: 3 days of incubation
Experimental: Cells were cultured for 16–24 hours under standard culturing conditions (5% CO2, 37 °C). […] All dose ranges were added in duplicate, followed by 72 hours of incubation. Cell viability was determined using a tetrazolium based metabolic activity assay. Briefly, 5 µL of 3-(4.5-dimethylthiazol-2-yl)-2,5-diphenyltetrazolium bromide (MTT) solution (5 mg/mL MTT in sterile PBS) was added per well, and the microplates were incubated for 4 hours at 37°C and 5% CO2 in a cell culture incubator. Next, 40 µL of 10% SDS/0.01 M HCl was added per well, and the microplates were incubated for 24–72 hours at 37°C and 5% CO2 in a cell culture incubator. Subsequently the absorbance at 570 nm and background absorbance at 720 nm were measured using the Spectramax i3x (Molecular Devices, San Jose, USA). Subsequently, the absorbance values at 720 nm were subtracted from the absorbance values at 570 nm, and the corresponding values were used to plot dose-response curves.
The data was normalized to the DMSO-treated cells (defined as 100% viability) and the empty controls (defined as 0% viability).

O=C(CCCCCCC(=O)Nc1ccccc1)NO [Vorinostat]
effect on relative HDR in the compound screen [1]: did not show the same effect
IC50 [2]: 3.34 µM
